Consider three substances from article PMC3195953.

Amino acid sequences for entries named in this document (tags omitted).
UniProt P08238: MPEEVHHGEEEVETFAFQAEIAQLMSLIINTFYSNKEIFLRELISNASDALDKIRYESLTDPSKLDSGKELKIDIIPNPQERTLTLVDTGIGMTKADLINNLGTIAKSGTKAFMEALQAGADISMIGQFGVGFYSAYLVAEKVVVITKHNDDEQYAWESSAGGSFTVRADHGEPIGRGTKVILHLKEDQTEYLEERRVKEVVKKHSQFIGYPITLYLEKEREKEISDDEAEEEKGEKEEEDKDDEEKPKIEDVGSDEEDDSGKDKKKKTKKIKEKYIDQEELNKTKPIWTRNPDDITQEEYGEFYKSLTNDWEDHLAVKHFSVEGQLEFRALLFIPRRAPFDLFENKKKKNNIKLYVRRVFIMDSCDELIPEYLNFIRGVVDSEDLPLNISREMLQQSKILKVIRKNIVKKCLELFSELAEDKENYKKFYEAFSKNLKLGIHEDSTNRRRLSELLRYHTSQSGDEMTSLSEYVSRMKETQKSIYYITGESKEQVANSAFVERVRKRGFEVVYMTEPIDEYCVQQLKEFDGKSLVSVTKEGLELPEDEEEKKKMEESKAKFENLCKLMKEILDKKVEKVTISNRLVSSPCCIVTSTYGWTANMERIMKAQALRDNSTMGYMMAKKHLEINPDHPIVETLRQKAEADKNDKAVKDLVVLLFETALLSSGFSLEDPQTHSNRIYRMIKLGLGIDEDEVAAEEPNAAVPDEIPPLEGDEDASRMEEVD
UniProt O15131: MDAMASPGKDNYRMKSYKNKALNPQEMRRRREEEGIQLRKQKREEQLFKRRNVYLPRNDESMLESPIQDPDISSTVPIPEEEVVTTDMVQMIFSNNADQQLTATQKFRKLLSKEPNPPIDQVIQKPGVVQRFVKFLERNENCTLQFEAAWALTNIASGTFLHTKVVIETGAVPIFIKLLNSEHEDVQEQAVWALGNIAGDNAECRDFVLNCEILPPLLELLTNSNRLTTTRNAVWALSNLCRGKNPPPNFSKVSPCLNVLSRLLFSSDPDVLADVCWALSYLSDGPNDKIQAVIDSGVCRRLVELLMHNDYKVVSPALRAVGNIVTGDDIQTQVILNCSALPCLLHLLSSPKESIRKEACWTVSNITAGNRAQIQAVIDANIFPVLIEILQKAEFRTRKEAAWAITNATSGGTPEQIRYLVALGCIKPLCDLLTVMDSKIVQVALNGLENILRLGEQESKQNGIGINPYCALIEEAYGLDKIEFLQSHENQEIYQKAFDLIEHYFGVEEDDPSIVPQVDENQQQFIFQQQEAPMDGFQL

Experiment [1] concerns the target Flag-tagged exportin-1 (UniProt O14980). In words: co-IP; triple-Flag-tagged bait transiently expressed in HEK 293T cells; lysis in 20 mM Tris-HCl pH 7.4, 150 mM KCl, 0.2 mM MgCl2, 1 mM dithiothreitol, 2% Triton X-100; anti-FLAG (M2) magnetic beads overnight at 4°C; washed with Tris-buffered saline; immunoblot. A general note: Immunoblotting shows a protein as a band on a membrane.

Experiment [2] has as its target Flag-tagged Aha1 (UniProt O95433). The description is as above.

These are yes or no findings as the source states them, for the method shown. In cells and extracts the contact can be indirect. Some entries that bind do so weakly or less than the wild type.

Regarding Hsp90α (from UniProt P07900 1-732), the binding result in experiment [1] and in experiment [2] was “binds” in each case.

Turning to Hsp90β (from UniProt P08238 1-724), the binding result in experiment [1] and in experiment [2] was “binds” each time.

Regarding importin-α6 (from UniProt O15131 1-539), the binding result in experiment [1] and in experiment [2] was “binds” each time.
